In all, about 33,000 sequences were measured (“E-score (-0.5 to 0.5)”: median about -0.015, highest 2% from about 0.3 on). The list shows a part of the results.
Molecular target: T1, Abf1 (UniProt P14164)
T1 sequence: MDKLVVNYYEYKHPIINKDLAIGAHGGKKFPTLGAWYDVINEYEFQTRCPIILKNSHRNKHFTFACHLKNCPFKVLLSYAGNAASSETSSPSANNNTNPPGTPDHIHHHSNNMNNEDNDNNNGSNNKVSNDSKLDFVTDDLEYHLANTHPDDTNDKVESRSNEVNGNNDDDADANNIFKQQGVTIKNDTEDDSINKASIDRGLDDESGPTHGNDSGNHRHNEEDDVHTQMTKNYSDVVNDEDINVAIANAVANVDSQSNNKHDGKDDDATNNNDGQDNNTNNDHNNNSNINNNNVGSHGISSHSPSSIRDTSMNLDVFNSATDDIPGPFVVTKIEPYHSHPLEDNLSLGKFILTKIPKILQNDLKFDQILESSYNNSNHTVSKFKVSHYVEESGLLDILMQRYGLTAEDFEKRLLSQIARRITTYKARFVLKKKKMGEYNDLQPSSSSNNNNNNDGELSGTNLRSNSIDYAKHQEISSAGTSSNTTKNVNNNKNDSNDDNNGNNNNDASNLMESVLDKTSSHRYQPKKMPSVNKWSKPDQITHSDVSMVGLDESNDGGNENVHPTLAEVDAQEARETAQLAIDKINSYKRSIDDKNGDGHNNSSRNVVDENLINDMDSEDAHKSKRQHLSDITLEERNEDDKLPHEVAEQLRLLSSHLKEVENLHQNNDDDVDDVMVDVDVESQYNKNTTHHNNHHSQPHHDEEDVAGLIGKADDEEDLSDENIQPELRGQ
Assay: PBM E-score (8-mer binding enrichment) (E-score (-0.5 to 0.5)); higher = stronger / more preferred TF binding
Settings: protein concentration: 200 nM; construct: GST-full length
Procedure, shortened: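 Full-length yeast transcription factors or their DNA-binding domains, GST-tagged and expressed with PURExpress, were applied at about 100-200 nM to universal all-10-mer Agilent arrays. These arrays had been made double-stranded by primer extension on fresh or once-stripped slides. Detection used fluorescent anti-GST, normalisation used masliner, and E-scores for ungapped eight-base words pooled with reverse complements came from the Universal PBM Analysis Suite.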

Row | Sequence | PBM E-score
1 | GCCGACAA | -0.0875
2 | ACCCGATG | -0.0462
3 | GCACAGCC | -0.204
4 | TAAAAACA | 0.239
5 | TGGGTAAA | -0.165
6 | CCAAACGC | -0.0153
7 | GACTCCGA | -0.261
8 | GAGAAATC | 0.23
9 | ACGTCTCC | 0.00365
10 | CGGCGACA | 0.107
11 | ACGTTGTG | -0.0356
12 | AATGGGAG | -0.261
13 | AATAAACA | 0.069
14 | AGGTGGGA | -0.192
15 | ACCGCTGA | -0.057
16 | GGCATATA | 0.151
17 | AATCGGTG | -0.0566
18 | AATAGCAG | -0.332
19 | AGGACACC | -0.149
20 | ATTCTATC | 0.127
21 | GTTCCAAA | 0.0989
22 | CTAGGGTA | -0.272

Row | Sequence | PBM E-score
23 | ACCTCGAC | -0.00492
24 | GATCATGC | 0.062
25 | ACAGCGCG | -0.0729
26 | ATCTGTGC | -0.13
27 | CGAGGAGA | -0.0933
28 | CGCGCCTC | -0.14
29 | AGTAATGA | 0.143
30 | GCCCGACC | -0.277
31 | AGTAGATA | 0.199
32 | AAGTCAGT | -0.0904
33 | AGGAAGTC | -0.177
34 | AAGGCAAG | -0.115
35 | AGTTGCCC | 0.0764
36 | ACATTGAT | 0.23
37 | GGGAAAAA | 0.0859
38 | AGCCCACC | -0.246
39 | CACGCCAC | 0.00407
40 | AAGCACGA | 0.251
41 | CTGATTCC | -0.186
42 | GAGGGCGA | -0.35
43 | CAGAGGTC | -0.061
44 | CCCGATCC | -0.177

Row | Sequence | PBM E-score
45 | AATAGTTG | 0.037
46 | GCATTTAC | -0.162
47 | AAAACAAA | 0.108
48 | CGTCACGC | 0.145
49 | GCTGGAAC | -0.187
50 | GCACGTGC | 0.14
51 | ACACCAAA | 0.113
52 | AGGTAACC | 0.00136
53 | CGGATTCC | -0.129
54 | ATACTATA | 0.137
55 | AAAATCCG | -0.00334
56 | GCGTCTGA | -0.202
57 | AAAATCGA | -0.0503
58 | CTGAGGCA | -0.217
59 | AACGATAT | 0.385
60 | CGATGCGC | 0.0746
61 | CGTAAAAG | 0.248
62 | CAACTCAA | 0.0787
63 | CGATCTTA | 0.153
64 | ACGGTCCT | -0.0643
65 | CGAAGAGC | 0.0864
66 | TTACGGAA | 0.124

Already shown: an excerpt of the list.
Row | Sequence | PBM E-score
53 | CGGATTCC | -0.129
54 | ATACTATA | 0.137
55 | AAAATCCG | -0.00334
56 | GCGTCTGA | -0.202

Additional entries follow:

Row | Sequence | PBM E-score
67 | TAGTCAAA | 0.12
68 | CATTGAGC | -0.227
69 | CCGCGTAA | -0.0337
70 | ATGCGCTA | 0.0225
71 | CTTAAGAC | 0.0704
72 | GCGTCAAC | 0.00871
73 | CACTAAGC | 0.12
74 | AGCTTGAT | -0.0353
75 | ATAGCAAG | -0.0758
76 | AGTGCCGG | -0.223
77 | AACCGTGT | 0.00767
78 | ACGAGACG | 0.246
79 | AAACCCAT | 0.129
80 | GTTTGCCA | 0.0189
81 | ATGATGGG | -0.0979
82 | CGGGGACA | -0.15
83 | CACGCAAG | 0.223
84 | ACTGCACC | -0.0706
85 | GTTAGTCA | 0.151
86 | AGTCCTGA | -0.0493
